Source: US20230346949A1 (SANOFI, priority 2019, published 2023)

Assay: peptide synthesis
Settings: conjugation step

With “conjugate of insulin analog 2 with 16-[4-[[5-[2-[2-[2-[2-[2-[2-(2,5-dioxopyrrolidin-1-yl) oxy-2-oxo-ethoxy] ethoxy]ethylamino]-2-oxo-ethoxy]ethoxy]ethylcarbamoyl]pyrimidin-2-yl]sulfamoyl]phenoxy]hexadecanoate [conjugate 1]” the “final HPLC purity” value (210 nm) was 98.0%, the conjugation yield (based on the amount of insulin analog 1 used, calculated from HPLC data, run 1) was 50% and the conjugation yield (based on the amount of insulin analog 1 used, calculated from HPLC data, run 2) was 80%. It also gave a conjugation yield (based on the amount of insulin analog 1 used, calculated from HPLC data, run 3) of 72%, a conjugation yield (based on the amount of insulin analog 1 used, calculated from HPLC data, run 4) of 84% and a conjugation yield (based on the amount of insulin analog 2 used) of 14%.
